The text below walks through data of patent publication US20100144645A1 (SHIRE LLC, priority 2006, published 2010).

A short description of this data set: peptide synthesis.

For the substance Boc-Gly-Gly-Gly-Gly-Leu-Hydrocodone, for the setting “coupling step”, the step yield was 37% yield.
Consider Gly-Gly-Gly-Gly-Leu-Hydrocodone, for which the step yield (late stage modification step) is listed as 97% yield.
